Test results as given in paper PMC6316800.
No constants are given. Whether binding was seen depends on the method and setting. In cells and extracts the contact can be indirect. A yes stands for co-enrichment or nearness to the bait. Other partners may have been found.

Chains of the proteins cited; added tags and fusions are not shown.
UniProt P03496: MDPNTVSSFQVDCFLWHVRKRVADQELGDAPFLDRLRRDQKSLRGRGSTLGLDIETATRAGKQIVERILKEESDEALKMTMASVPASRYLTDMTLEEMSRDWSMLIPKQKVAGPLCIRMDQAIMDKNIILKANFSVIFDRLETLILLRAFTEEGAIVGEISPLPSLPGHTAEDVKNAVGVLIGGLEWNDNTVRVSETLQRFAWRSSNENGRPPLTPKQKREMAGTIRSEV

B1: Ribosome biogenesis protein BRX1 homolog (protein, UniProt Q8TDN6 1-353)
chain: MAATKRKRRGGFAVQAKKPKRNEIDAEPPAKRHATAEEVEEEERDRIPGPVCKGKWKNKERILIFSSRGINFRTRHLMQDLRMLMPHSKADTKMDRKDKLFVINEVCEMKNCNKCIYFEAKKKQDLYMWLSNSPHGPSAKFLVQNIHTLAELKMTGNCLKGSRPLLSFDPAFDELPHYALLKELLIQIFSTPRYHPKSQPFVDHVFTFTILDNRIWFRNFQIIEEDAALVEIGPRFVLNLIKIFQGSFGGPTLYENPHYQSPNMHRRVIRSITAAKYREKQQVKDVQKLRKKEPKTLLPHDPTADVFVTPAEEKPIEIQWVKPEPKVDLKARKKRIYKRQRKMKQRMDSGKTK
B2: U3 small nucleolar ribonucleoprotein protein IMP4 (protein, UniProt Q96G21 1-291)
chain: MLRREARLRREYLYRKAREEAQRSAQERKERLRRALEENRLIPTELRREALALQGSLEFDDAGGEGVTSHVDDEYRWAGVEDPKVMITTSRDPSSRLKMFAKELKLVFPGAQRMNRGRHEVGALVRACKANGVTDLLVVHEHRGTPVGLIVSHLPFGPTAYFTLCNVVMRHDIPDLGTMSEAKPHLITHGFSSRLGKRVSDILRYLFPVPKDDSHRVITFANQDDYISFRHHVYKKTDHRNVELTEVGPRFELKLYMIRLGTLEQEATADVEWRWHPYTNTARKRVFLSTE
B3: Serine beta-lactamase-like protein LACTB, mitochondrial (protein, UniProt P83111 116-547)
chain: HRIKDEVGAPGIVVGVSVDGKEVWSEGLGYADVENRVPCKPETVMRIASISKSLTMVALAKLWEAGKLDLDIPVQHYVPEFPEKEYEGEKVSVTTRLLISHLSGIRHYEKDIKKVKEEKAYKALKMMKENVAFEQEKEGKSNEKNDFTKFKTEQENEAKCRNSKPGKKKNDFEQGELYLREKFENSIESLRLFKNDPLFFKPGSQFLYSTFGYTLLAAIVERASGCKYLDYMQKIFHDLDMLTTVQEENEPVIYNRARFYVYNKKKRLVNTPYVDNSYKWAGGGFLSTVGDLLKFGNAMLYGYQVGLFKNSNENLLPGYLKPETMVMMWTPVPNTEMSWDKEGKYAMAWGVVERKQTYGSCRKQRHYASHTGGAVGASSVLLVLPEELDTETINNKVPPRGIIVSIICNMQSVGLNSTALKIALEFDKDRSD
B4: Matrin-3 (protein, UniProt P43243 1-847)
chain: MSKSFQQSSLSRDSQGHGRDLSAAGIGLLAAATQSLSMPASLGRMNQGTARLASLMNLGMSSSLNQQGAHSALSSASTSSHNLQSIFNIGSRGPLPLSSQHRGDADQASNILASFGLSARDLDELSRYPEDKITPENLPQILLQLKRRRTEEGPTLSYGRDGRSATREPPYRVPRDDWEEKRHFRRDSFDDRGPSLNPVLDYDHGSRSQESGYYDRMDYEDDRLRDGERCRDDSFFGETSHNYHKFDSEYERMGRGPGPLQERSLFEKKRGAPPSSNIEDFHGLLPKGYPHLCSICDLPVHSNKEWSQHINGASHSRRCQLLLEIYPEWNPDNDTGHTMGDPFMLQQSTNPAPGILGPPPPSFHLGGPAVGPRGNLGAGNGNLQGPRHMQKGRVETSRVVHIMDFQRGKNLRYQLLQLVEPFGVISNHLILNKINEAFIEMATTEDAQAAVDYYTTTPALVFGKPVRVHLSQKYKRIKKPEGKPDQKFDQKQELGRVIHLSNLPHSGYSDSAVLKLAEPYGKIKNYILMRMKSQAFIEMETREDAMAMVDHCLKKALWFQGRCVKVDLSEKYKKLVLRIPNRGIDLLKKDKSRKRSYSPDGKESPSDKKSKTDGSQKTESSTEGKEQEEKSGEDGEKDTKDDQTEQEPNMLLESEDELLVDEEEAAALLESGSSVGDETDLANLGDVASDGKKEPSDKAVKKDGSASAAAKKKLKKVDKIEELDQENEAALENGIKNEENTEPGAESSENADDPNKDTSENADGQSDENKDDYTIPDEYRIGPYQPNVPVGIDYVIPKTGFYCKLCSLFYTNEEVAKNTHCSSLPHYQKLKKFLNKLAEERRQKKET
B5: U3 small nucleolar ribonucleoprotein protein MPP10 (protein, UniProt O00566 1-681)
chain: MAPQVWRRRTLERCLTEVGKATGRPECFLTIQEGLASKFTSLTKVLYDFNKILENGRIHGSPLQKLVIENFDDEQIWQQLELQNEPILQYFQNAVSETINDEDISLLPESEEQEREEDGSEIEADDKEDLEDLEEEEVSDMGNDDPEMGERAENSSKSDLRKSPVFSDEDSDLDFDISKLEQQSKVQNKGQGKPREKSIVDDKFFKLSEMEAYLENIEKEEERKDDNDEEEEDIDFFEDIDSDEDEGGLFGSKKLKSGKSSRNLKYKDFFDPVESDEDITNVHDDELDSNKEDDEIAEEEAEELSISETDEDDDLQENEDNKQHKESLKRVTFALPDDAETEDTGVLNVKKNSDEVKSSFEKRQEKMNEKIASLEKELLEKKPWQLQGEVTAQKRPENSLLEETLHFDHAVRMAPVITEETTLQLEDIIKQRIRDQAWDDVVRKEKPKEDAYEYKKRLTLDHEKSKLSLAEIYEQEYIKLNQQKTAEEENPEHVEIQKMMDSLFLKLDALSNFHFIPKPPVPEIKVVSNLPAITMEEVAPVSVSDAALLAPEEIKEKNKAGDIKTAAEKTATDKKRERRKKKYQKRMKIKEKEKRRKLLEKSSVDQAGKYSKTVASEKLKQLTKTGKASFIKDEGKDKALKSSQAFFSKLQDQVKMQINDAKKTEKKKKKRQDISVHKLKL
B6: Myb-binding protein 1A (protein, UniProt Q9BQG0 1-1328)
chain: MESRDPAQPMSPGEATQSGARPADRYGLLKHSREFLDFFWDIAKPEQETRLAATEKLLEYLRGRPKGSEMKYALKRLITGLGVGRETARPCYSLALAQLLQSFEDLPLCSILQQIQEKYDLHQVKKAMLRPALFANLFGVLALFQSGRLVKDQEALMKSVKLLQALAQYQNHLQEQPRKALVDILSEVSKATLQEILPEVLKADLNIILSSPEQLELFLLAQQKVPSKLKKLVGSVNLFSDENVPRLVNVLKMAASSVKKDRKLPAIALDLLRLALKEDKFPRFWKEVVEQGLLKMQFWPASYLCFRLLGAALPLLTKEQLHLVMQGDVIRHYGEHVCTAKLPKQFKFAPEMDDYVGTFLEGCQDDPERQLAVLVAFSSVTNQGLPVTPTFWRVVRFLSPPALQGYVAWLRAMFLQPDLDSLVDFSTNNQKKAQDSSLHMPERAVFRLRKWIIFRLVSIVDSLHLEMEEALTEQVARFCLFHSFFVTKKPTSQIPETKHPFSFPLENQAREAVSSAFFSLLQTLSTQFKQAPGQTQGGQPWTYHLVQFADLLLNHSHNVTTVTPFTAQQRQAWDRMLQTLKELEAHSAEARAAAFQHLLLLVGIHLLKSPAESCDLLGDIQTCIRKSLGEKPRRSRTKTIDPQEPPWVEVLVEILLALLAQPSHLMRQVARSVFGHICSHLTPRALQLILDVLNPETSEDENDRVVVTDDSDERRLKGAEDKSEEGEDNRSSESEEESEGEESEEEERDGDVDQGFREQLMTVLQAGKALGGEDSENEEELGDEAMMALDQSLASLFAEQKLRIQARRDEKNKLQKEKALRRDFQIRVLDLVEVLVTKQPENALVLELLEPLLSIIRRSLRSSSSKQEQDLLHKTARIFTHHLCRARRYCHDLGERAGALHAQVERLVQQAGRQPDSPTALYHFNASLYLLRVLKGNTAEGCVHETQEKQKAGTDPSHMPTGPQAASCLDLNLVTRVYSTALSSFLTKRNSPLTVPMFLSLFSRHPVLCQSLLPILVQHITGPVRPRHQACLLLQKTLSMREVRSCFEDPEWKQLMGQVLAKVTENLRVLGEAQTKAQHQQALSSLELLNVLFRTCKHEKLTLDLTVLLGVLQGQQQSLQQGAHSTGSSRLHDLYWQAMKTLGVQRPKLEKKDAKEIPSATQSPISKKRKKKGFLPETKKRKKRKSEDGTPAEDGTPAATGGSQPPSMGRKKRNRTKAKVPAQANGTPTTKSPAPGAPTRSPSTPAKSPKLQKKNQKPSQVNGAPGSPTEPAGQKQHQKALPKKGVLGKSPLSALARKKARLSLVIRSPSLLQSGAKKKAQVRKAGKP
B7: UPF0568 protein C14orf166 (protein, UniProt Q9Y224 1-244)
chain: MFRRKLTALDYHNPAGFNCKDETEFRNFIVWLEDQKIRHYKIEDRGNLRNIHSSDWPKFFEKYLRDVNCPFKIQDRQEAIDWLLGLAVRLEYGDNAEKYKDLVPDNSKTADNATKNAEPLINLDVNNPDFKAGVMALANLLQIQRHDDYLVMLKAIRILVQERLTQDAVAKANQTKEGLPVALDKHILGFDTGDAVLNEAAQILRLLHIEELRELQTKINEAIVAVQAIIADPKTDHRLGKVGR

What follows are binders tested against Influenza A virus non-structural protein 1 (NS1), strain A/Puerto Rico/8/1934(H1N1) (Influenza A virus A/Puerto Rico/8/1934(H1N1)) (UniProt P03496) (assay: affinity purification with mass spectrometry).

Binder	binding
B1	binds
B2	binds
B3	binds
B4	binds
B5	binds
B6	binds
B7	binds
